T1: High mobility group box B protein HMGB2 (Y2H bait) (UniProt P26583)
T1 sequence: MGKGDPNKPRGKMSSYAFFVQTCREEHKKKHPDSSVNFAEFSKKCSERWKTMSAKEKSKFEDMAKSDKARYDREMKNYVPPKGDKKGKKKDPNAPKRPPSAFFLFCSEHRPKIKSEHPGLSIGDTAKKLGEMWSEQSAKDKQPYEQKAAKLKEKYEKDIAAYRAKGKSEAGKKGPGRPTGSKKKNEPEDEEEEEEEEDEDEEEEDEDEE

By UniProt entry, the sequences of proteins in these tests, tags left out. Where a name states a change or a piece, a line headed by the entry shows the natural chain unless it says otherwise. Residues count along the entry.
UniProt P09429: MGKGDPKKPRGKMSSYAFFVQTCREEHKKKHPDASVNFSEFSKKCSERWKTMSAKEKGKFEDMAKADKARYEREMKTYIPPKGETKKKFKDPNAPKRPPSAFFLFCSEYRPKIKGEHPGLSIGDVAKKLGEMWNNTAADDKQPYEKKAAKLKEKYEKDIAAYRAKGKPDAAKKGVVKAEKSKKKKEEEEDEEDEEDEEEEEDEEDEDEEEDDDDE
UniProt Q8WVS4, residues 170-336: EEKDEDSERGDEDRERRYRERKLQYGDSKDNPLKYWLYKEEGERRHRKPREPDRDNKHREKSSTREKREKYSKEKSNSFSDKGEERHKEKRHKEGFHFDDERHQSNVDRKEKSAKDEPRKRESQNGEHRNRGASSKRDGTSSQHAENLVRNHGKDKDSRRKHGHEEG
UniProt Q8N668: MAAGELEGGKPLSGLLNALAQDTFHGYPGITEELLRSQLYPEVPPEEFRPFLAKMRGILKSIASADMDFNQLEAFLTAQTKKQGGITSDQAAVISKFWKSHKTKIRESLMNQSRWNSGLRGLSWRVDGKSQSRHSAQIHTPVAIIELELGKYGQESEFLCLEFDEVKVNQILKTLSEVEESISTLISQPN
UniProt Q9P287, residues 8-257: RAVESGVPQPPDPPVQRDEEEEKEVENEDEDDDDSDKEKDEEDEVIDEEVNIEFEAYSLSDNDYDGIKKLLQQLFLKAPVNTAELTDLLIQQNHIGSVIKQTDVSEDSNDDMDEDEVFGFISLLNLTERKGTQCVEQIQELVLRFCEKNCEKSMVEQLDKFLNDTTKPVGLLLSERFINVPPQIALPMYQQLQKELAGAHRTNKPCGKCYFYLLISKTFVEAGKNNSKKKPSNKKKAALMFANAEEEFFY
UniProt Q13464, residues 141-197: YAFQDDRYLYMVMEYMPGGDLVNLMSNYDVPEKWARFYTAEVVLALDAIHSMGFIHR
UniProt Q15365, residues 26-202: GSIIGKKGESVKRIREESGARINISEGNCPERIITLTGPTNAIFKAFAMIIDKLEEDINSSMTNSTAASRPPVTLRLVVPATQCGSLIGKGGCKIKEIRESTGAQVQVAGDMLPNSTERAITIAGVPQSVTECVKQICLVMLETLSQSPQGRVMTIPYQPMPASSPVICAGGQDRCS
UniProt Q96KR1, residues 294-722: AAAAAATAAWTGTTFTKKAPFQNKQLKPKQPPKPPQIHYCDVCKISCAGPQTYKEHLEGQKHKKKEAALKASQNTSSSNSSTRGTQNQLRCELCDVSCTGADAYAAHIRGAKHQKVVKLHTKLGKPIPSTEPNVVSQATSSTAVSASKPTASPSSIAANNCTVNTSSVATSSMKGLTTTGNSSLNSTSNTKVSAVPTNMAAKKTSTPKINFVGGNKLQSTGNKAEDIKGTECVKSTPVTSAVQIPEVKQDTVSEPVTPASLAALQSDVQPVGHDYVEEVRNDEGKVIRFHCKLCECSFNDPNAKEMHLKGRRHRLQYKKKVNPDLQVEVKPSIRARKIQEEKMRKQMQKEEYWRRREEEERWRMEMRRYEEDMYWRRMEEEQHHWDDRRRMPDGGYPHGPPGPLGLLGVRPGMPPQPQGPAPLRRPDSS

T2: HMGB2 (endogenous) (human (endogenous in SKOV-3 and PEO1)) (UniProt P26583)
T2 sequence: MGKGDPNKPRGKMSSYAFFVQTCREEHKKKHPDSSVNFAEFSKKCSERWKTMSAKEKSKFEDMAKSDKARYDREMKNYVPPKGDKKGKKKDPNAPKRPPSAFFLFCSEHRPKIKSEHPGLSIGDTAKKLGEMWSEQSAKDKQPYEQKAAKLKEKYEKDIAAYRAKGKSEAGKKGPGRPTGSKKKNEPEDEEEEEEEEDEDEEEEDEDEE

B1: ATF7IP (domain or fragment, UniProt Q6VMQ6 8-250)
chain: QKKVFKARKTMRVSDRQQLEAVYKVKEELLKTDVKLLNGNHENGDLDPTSPLENMDYIKDKEEVNGIEEICFDPEGSKAEWKETPCILSVNVKNKQDDDLNCEPLSPHNITPEPVSKLPAEPVSGDPAPGDLDAGDPASGVLASGDSTSGDPTSSEPSSSDAASGDATSGDAPSGDVSPGDATSGDATADDLSSGDPTSSDPIPGEPVPVEPISGDCAADDIASSEITSVDLASGAPASTDPA
B2: Keratin, type II cytoskeletal 7 (domain or fragment, UniProt P08729 102-289)
chain: FASFIDKVRFLEQQNKLLETKWTLLQEQKSAKSSRLPDIFEAQIAGLRGQLEALQVDGGRLEAELRSMQDVVEDFKNKYEDEINHRTAAENEFVVLKKDVDAAYMSKVELEAKVDALNDEINFLRTLNETELTELQSQISDTSVVLSMDNSRSLDLDGIIAEVKAQYEEMAKCSRAEAEAWYQTKFET
B3: E3 ubiquitin-protein ligase UHRF2 (domain or fragment, UniProt Q96PU4 157-277)
chain: GQSRGKTPLKNGSSCKRTNGNIKHKSKENTNKLDSVPSTSNSDCVAADEDVIYHIQYDEYPESGTLEMNVKDLRPRARTILKWNELNVGDVVMVNYNVESPGQRGFWFDAEITTLKTISRT
B4: A-kinase-interacting protein 1 (domain or fragment, UniProt Q9NQ31 29-210)
chain: LERAKRRAVDWHALERPKGCMGVLAREAPHLEKQPAAGPQRVLPGEREERPPTLSASFRTMAEFMDYTSSQCGKYYSSVPEEGGATHVYRYHRGESKLHMCLDIGNGQRKDRKKTSLGPGGSYQISEHAPEASQPAENISKDLYIEVYPGTYSVTVGSNDLTKKTHVVAVDSGQSVDLVFPV
B5: Splicing factor U2AF 35 kDa subunit (domain or fragment, UniProt Q01081 35-202)
chain: RLHNKPTFSQTIALLNIYRNPQNSSQSADGLRCAVSDVEMQEHYDEFFEEVFTEMEEKYGEVEEMNVCDNLGDHLVGNVYVKFRREEDAEKAVIDLNNRWFNGQPIHAELSPVTDFREACCRQYEMGECTRGGFCNFMHLKPISRELRRELYGRRRKKHRSRSRSRER
B6: Migration and invasion enhancer 1 (clone 1-116) (protein, UniProt Q9BRT3 1-115)
chain: MSGEPGQTSVAPPPEEVEPGSGVRIVVEYCEPCGFEATYLELASAVKEQYPGIEIESRLGGTGAFEIEINGQLVFSKLENGGFPYEKDLIEAIRRASNGETLEKITNSRPPCVIL
B7: Zinc finger protein 668 (domain or fragment, UniProt Q96K58 16-239)
chain: KRSGRRYKCLSCTKTFPNAPRAARHAATHGPADCSEEVAEVKPKPETEAKAEEASGEKVSGSAAKPRPYACPLCPKAYKTAPELRSHGRSHTGEKPFPCPECGRRFMQPVCLRVHLASHAGELPFRCAHCPKAYGALSKLKIHQRGHTGERPYACADCGKSFADPSVFRKHRRTHAGLRPYSCERCGKAYAELKDLRNHERSHTGERPFLCSECGKSFSRSSSL
B8: TGM2 (domain or fragment, UniProt P21980 377-480)
chain: RAIKEGDLSTKYDAPFVFAEVNADVVDWIQQDDGSVHKSINRSLIVGLKISTKSVGRDEREDITHTYKYPEGSSEEREAFTRANHLNKLAEKEETGMAMRIRVG
B9: Remodeling and spacing factor 1 (domain or fragment, UniProt Q96T23 616-799)
chain: ESEKPGSPEAAETSPPSNIIDHCEKLASEKEVVECQSTSTVGGQSVKKVDLETLKEDSEFTKVEMDNLDNAQTSGIEEPSETKGSMQKSKFKYKLVPEEETTASENTEITSERQKEGIKLTIRISSRKKKPDSPPKVLEPENKQEKTEKEEEKTNVGRTLRRSPRISRPTAKVAEIRDQKADKK
B10: Dystroglycan (domain or fragment, UniProt Q14118 311-516)
chain: RRQIHATPTPVTAIGPPTTAIQEPPSRIVPTPTSPAIAPPTETMAPPVRDPVPGKPTVTIRTRGAIIQTPTLGPIQPTRVSEAGTTVPGQIRPTMTIPGYVEPTAVATPPTTTTKKPRVSTPKPATPSTDSTTTTTRRPTKKPRTPRPVPRVTTKVSITRLETASPPTRIRTTTSGVPRGGEPNQRPELKNHIDRVDAWVGTYFEV
B11: TBC1 domain family member 25 (domain or fragment, UniProt Q3MII6 309-366)
chain: PHLRALHDLLTTYAVTHPQVSYCQGMSDLASPILAVMDHEGHAFVCFCGIMKRLAANF
B12: Migration and invasion enhancer 1 (endogenous) (protein, UniProt Q9BRT3 1-115)
chain: MSGEPGQTSVAPPPEEVEPGSGVRIVVEYCEPCGFEATYLELASAVKEQYPGIEIESRLGGTGAFEIEINGQLVFSKLENGGFPYEKDLIEAIRRASNGETLEKITNSRPPCVIL

No constants are given. Whether binding was seen depends on the method and setting. For some of these results: Binding seen in cells or lysates may run through a third protein. Some binding calls cover weakened binding; strength is not graded here.

The first assay deals with High mobility group box B protein HMGB1 (Y2H bait) (UniProt P09429). In words: two-hybrid; Matchmaker Gold Yeast Two-Hybrid System; HMGB1 or HMGB2 fused to the GAL4 DNA-binding domain as bait, cDNA library from SKOV-3 cells fused to the GAL4 activation domain as prey; mating of Y187 and Y2HGold; positives by at least three different reporter genes, clones sequenced. A general note: In a reporter assay the amount or activity of a reporter protein is the signal.
Take “WD repeat-containing protein 60 (from UniProt Q8WVS4 170-336) (domain or fragment)”: the binding result is “binds”.

As to B1, the binding entry is on record as “binds”. Still for that read-out and setting: the value for B2 was “binds”. Same read-out and setting: the value for B3 was “binds”; that for B4 was “binds”.

Another assay concerns the target T1, High mobility group box B protein HMGB2 (Y2H bait). The assay is described as above.
With “COMM domain-containing protein 1 (clone 2-189, SKOV-3 library) (from UniProt Q8N668 2-189) (domain or fragment)”, the binding entry is recorded as “binds”. The same measure, in the same setting: the value for “BRCA2 and CDKN1A-interacting protein (from UniProt Q9P287 8-257) (domain or fragment)” was “binds”; that for “Rho-associated protein kinase 1 (from UniProt Q13464 141-197) (domain or fragment)” was “binds”; that for B5 was “binds”. On the same count and under the same terms, the value for B6 was “binds”; that for B7 was “binds”.

Another assay concerns the target High mobility group box B protein HMGB1 (Y2H bait) (UniProt P09429). Briefly: two-hybrid; Matchmaker Gold Yeast Two-Hybrid System; HMGB1 or HMGB2 fused to the GAL4 DNA-binding domain as bait, cDNA library from ovarian tumor tissue (primary transitional cell carcinoma) fused to the GAL4 activation domain as prey; mating of Y187 and Y2HGold; positives by at least three different reporter genes, clones sequenced.
“60S ribosomal protein L29 (from UniProt P47914 36-143) (domain or fragment)”: the binding result is listed as “binds”. Turning to B8, the binding entry is recorded as “binds”. For B9, the binding result is reported as “binds”. The same measure, in the same setting: the result for B10 reads “binds”.

The target in a further assay is T1, High mobility group box B protein HMGB2 (Y2H bait). The description is as above.
Consider “Poly (rC)-binding protein 1 (from UniProt Q15365 26-202) (domain or fragment)”, for which the binding result is recorded as “binds”. Same read-out and setting: the result for “COMM domain-containing protein 1 (clone 4-189, tumor tissue library) (from UniProt Q8N668 4-189) (domain or fragment)” reads “binds”; that for “Zinc finger RNA-binding protein (from UniProt Q96KR1 294-722) (domain or fragment)”, “binds”. As to EEEEEEGTYHCTECEDSFDNLGELHGHFMLHARGEV (domain or fragment, UniProt Q96B54 153-188) [Zinc finger protein 428], the binding entry is given as “binds”. B6: the binding entry is recorded as “binds”. Still for that read-out and setting: the value for B11 was “binds”.

For another assay, the target named is T2, HMGB2 (endogenous) (human (endogenous in SKOV-3 and PEO1)). Briefly: co-IP; SKOV-3 and PEO1 cells cross-linked with 1% formaldehyde for 10 min; 16 mg total protein extract immunoprecipitated with HMGB2 rabbit polyclonal antibody on dynabeads-protein A (IgG as control); Western blot for HMGB2, MIEN1 and NOP53; lysis buffer 50 mM Tris-HCl pH 8, 150 mM NaCl, 0.1% NP-40, 1 mM EDTA. (A western blot detects proteins with antibodies after separation by electrophoresis.)
Turning to B12, the binding result is “binds”.

These data come from publication PMC7564582.
